Assay results as given in article PMC5595435.
These are yes or no findings as the source states them, for the method shown. For some assays here: Binding seen in cells or lysates may run through a third protein. Some results given as binding are weak or reduced against the parent protein; the word gives no strength.

Amino acid sequences for entries named in this document (tags omitted).
UniProt P51114: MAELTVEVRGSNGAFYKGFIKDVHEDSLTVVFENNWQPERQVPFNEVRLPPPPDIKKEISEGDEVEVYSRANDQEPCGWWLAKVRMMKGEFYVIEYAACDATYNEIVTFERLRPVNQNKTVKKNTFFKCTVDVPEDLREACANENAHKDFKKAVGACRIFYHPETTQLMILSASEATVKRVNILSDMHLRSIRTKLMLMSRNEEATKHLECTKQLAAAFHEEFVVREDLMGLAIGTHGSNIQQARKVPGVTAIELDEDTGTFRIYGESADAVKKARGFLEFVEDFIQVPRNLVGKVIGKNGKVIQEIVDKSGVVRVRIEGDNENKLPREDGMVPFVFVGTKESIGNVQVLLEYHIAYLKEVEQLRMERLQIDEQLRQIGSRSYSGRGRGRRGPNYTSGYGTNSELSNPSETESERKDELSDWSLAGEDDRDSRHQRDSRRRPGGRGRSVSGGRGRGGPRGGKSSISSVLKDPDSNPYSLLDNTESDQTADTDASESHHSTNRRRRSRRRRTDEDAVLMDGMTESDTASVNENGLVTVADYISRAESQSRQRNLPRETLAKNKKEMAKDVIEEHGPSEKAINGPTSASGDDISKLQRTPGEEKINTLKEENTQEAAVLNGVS
UniProt Q14839: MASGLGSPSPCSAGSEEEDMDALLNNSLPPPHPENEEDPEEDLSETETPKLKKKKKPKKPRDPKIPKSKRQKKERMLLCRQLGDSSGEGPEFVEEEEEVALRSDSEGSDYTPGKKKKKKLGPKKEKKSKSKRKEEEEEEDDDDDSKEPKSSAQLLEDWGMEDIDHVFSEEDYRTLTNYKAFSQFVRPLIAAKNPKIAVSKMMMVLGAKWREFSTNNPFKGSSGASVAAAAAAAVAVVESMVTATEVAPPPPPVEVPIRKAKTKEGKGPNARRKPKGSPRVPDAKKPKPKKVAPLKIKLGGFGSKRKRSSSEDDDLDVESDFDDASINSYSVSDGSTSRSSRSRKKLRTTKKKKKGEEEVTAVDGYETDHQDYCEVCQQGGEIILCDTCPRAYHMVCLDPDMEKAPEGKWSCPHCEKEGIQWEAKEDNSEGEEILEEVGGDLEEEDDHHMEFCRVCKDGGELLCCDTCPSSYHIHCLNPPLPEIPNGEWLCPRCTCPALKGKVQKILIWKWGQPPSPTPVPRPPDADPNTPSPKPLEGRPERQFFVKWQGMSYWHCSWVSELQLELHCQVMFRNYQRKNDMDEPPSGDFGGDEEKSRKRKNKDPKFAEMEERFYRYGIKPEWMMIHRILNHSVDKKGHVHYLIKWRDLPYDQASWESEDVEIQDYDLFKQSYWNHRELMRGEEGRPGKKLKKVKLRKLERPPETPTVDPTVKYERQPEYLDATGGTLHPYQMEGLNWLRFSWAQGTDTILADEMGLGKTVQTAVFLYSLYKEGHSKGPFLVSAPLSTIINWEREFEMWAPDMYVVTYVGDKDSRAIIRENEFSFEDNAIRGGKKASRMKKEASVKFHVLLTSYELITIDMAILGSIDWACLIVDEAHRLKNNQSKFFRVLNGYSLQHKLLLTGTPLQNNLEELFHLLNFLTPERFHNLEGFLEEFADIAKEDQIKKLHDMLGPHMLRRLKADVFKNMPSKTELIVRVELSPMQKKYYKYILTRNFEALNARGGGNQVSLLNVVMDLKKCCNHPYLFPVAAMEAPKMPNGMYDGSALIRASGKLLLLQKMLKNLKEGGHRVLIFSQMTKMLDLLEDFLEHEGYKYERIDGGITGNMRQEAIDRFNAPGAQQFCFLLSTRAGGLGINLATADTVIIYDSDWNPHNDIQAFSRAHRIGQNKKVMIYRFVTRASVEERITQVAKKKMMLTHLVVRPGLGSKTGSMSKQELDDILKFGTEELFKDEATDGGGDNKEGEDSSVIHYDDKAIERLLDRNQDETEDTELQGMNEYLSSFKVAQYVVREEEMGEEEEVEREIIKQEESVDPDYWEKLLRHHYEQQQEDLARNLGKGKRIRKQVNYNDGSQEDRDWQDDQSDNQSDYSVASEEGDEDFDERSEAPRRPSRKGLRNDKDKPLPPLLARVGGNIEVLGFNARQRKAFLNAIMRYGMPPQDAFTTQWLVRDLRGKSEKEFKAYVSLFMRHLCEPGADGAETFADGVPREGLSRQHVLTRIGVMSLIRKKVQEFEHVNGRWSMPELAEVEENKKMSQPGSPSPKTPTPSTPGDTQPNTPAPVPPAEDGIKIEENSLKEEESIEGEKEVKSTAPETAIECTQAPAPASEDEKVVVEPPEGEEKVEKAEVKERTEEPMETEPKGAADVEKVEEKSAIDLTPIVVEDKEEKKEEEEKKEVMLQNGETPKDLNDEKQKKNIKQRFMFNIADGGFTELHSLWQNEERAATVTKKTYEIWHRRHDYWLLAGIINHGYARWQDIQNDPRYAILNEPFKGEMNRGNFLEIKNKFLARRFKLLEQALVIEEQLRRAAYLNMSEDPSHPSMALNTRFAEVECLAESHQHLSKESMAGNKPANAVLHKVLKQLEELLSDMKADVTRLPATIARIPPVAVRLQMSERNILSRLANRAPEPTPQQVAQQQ
UniProt P42224: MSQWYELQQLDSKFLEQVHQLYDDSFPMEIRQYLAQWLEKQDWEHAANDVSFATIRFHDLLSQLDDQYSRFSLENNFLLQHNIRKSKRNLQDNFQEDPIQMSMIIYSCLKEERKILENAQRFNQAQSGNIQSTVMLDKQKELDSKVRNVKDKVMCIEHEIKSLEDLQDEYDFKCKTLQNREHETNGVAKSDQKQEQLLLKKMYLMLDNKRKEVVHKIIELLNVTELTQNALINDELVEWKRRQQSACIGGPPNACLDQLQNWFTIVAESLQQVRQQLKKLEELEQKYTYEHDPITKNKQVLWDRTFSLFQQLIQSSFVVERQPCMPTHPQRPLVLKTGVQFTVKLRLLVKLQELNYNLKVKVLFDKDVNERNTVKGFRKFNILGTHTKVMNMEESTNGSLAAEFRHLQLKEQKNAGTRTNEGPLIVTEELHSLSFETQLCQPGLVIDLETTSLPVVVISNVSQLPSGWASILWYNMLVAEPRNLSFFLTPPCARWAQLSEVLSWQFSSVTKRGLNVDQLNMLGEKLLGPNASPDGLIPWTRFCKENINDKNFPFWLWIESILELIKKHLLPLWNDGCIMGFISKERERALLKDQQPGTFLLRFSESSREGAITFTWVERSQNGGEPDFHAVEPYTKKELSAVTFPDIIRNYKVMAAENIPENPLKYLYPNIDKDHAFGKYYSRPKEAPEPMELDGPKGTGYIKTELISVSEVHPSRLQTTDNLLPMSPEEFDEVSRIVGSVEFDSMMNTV
UniProt P40763: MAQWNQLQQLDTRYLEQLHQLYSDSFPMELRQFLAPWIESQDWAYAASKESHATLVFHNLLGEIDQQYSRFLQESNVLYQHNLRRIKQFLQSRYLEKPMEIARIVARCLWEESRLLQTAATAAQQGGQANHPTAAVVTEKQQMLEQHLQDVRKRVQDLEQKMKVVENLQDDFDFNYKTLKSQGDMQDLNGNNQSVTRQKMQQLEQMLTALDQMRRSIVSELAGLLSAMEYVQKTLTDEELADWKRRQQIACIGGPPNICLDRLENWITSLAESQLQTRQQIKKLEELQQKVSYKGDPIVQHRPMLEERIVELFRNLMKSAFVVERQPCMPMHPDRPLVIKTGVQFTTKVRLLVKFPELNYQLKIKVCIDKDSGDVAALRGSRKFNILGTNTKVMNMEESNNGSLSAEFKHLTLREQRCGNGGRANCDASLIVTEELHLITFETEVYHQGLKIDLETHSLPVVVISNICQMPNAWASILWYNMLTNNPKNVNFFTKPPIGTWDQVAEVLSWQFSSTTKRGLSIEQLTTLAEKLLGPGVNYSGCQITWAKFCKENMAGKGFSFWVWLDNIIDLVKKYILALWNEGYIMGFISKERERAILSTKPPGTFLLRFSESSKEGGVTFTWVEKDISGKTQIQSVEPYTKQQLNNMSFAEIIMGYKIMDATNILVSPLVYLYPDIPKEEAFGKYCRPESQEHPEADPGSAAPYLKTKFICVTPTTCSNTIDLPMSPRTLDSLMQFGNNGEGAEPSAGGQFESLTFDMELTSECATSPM
UniProt O60264: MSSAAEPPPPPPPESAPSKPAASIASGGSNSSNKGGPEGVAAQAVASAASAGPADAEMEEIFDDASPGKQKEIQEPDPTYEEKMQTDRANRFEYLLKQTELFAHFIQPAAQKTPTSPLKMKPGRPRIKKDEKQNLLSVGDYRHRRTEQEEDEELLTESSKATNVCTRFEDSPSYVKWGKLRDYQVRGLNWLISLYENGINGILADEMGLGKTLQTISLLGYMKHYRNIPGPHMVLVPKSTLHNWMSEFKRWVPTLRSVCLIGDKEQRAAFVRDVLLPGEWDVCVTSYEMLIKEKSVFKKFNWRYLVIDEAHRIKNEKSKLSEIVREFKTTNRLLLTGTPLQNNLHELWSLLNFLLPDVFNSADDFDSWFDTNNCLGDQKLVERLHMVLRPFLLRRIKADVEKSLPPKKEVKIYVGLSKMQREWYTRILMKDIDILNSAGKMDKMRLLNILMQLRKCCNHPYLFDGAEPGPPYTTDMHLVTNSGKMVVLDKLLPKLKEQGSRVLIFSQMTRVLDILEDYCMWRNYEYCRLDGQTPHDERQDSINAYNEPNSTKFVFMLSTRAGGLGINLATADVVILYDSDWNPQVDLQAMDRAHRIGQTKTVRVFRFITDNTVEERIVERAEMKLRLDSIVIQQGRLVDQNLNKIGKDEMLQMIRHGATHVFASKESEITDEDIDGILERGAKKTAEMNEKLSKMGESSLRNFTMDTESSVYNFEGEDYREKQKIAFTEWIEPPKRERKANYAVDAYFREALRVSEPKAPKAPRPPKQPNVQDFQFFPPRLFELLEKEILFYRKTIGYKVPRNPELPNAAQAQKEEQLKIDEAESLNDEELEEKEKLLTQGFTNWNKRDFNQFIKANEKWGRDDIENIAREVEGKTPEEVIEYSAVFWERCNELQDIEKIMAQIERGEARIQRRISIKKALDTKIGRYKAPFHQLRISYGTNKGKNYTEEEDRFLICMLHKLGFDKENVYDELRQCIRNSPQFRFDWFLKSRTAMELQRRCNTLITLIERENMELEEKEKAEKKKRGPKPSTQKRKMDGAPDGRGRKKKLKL

Key:
[1] = target: FXR1 (Fragile X-related Protein 1), endogenous (human (endogenous in H358 and KATOIII)) (UniProt P51114); assay: co-IP; ChIP-WB: formaldehyde cross-linked, micrococcal nuclease digested single-nucleosome lysate of H358 cells; anti-FXR1 antibody, Protein G magnetic beads; eluted proteins analysed by WB
[2] = target: Flag-tagged-FXR1 (full-length isoform a) (UniProt P51114); assay: pull-down; 25 µl purified Flag-tagged-FXR1 with 75 µl purified HA-tagged-STAT1 or -STAT3 in binding buffer (50 mM Tris pH 7.5, 150 mM NaCl, 0.1% NP-40, 1 mM DTT), 4°C overnight; Flag or HA magnetic beads; wash with 300 mM NaCl; WB; both purified

Substance	binding [1]	binding [2]
CHD4 (from UniProt Q14839 1-1912)	binds	–
HA-tagged-STAT1 (from UniProt P42224 1-750)	–	binds
HA-tagged-STAT3 (from UniProt P40763 1-770)	–	binds
SNF2H (from UniProt O60264 1-1052)	binds	–
STAT1, endogenous (from UniProt P42224 1-750)	binds	–
STAT3, endogenous (from UniProt P40763 1-770)	binds	–
phosphorylated STAT1, endogenous (from UniProt P42224 1-750)	binds	–
phosphorylated STAT3, endogenous (from UniProt P40763 1-770)	binds	–
